No constants are given. Whether binding was seen depends on the method and setting.
Target: Rv1813c_(28-143), recombinant Rv1813c without its signal peptide (Mycobacterium tuberculosis) (UniProt P9WLS1)
Assay: SEC-MALS

Chains of the proteins cited; added tags and fusions are not shown. Residues count along the entry.
UniProt P9WLS1, residues 28-143: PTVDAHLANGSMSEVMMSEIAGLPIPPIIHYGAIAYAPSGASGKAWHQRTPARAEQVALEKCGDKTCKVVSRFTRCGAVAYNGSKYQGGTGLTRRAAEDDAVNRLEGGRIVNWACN

In the case of “Rv1813c_(28-143), recombinant Rv1813c without its signal peptide (from UniProt P9WLS1 28-143)”, the binding is reported as “no binding”.
